Holding throughout (assay): affinity purification with mass spectrometry
For assay [1], the target named is CDK12 (human (endogenous in HeLa)) (UniProt Q9NYV4).
For assay [2], the target named is EGFR (human (endogenous in HeLa)) (UniProt P00533).
For assay [3], the target named is adapter-associated kinase 1 (AAK1) (human (endogenous in FOCUS)) (UniProt Q2M2I8).
The target in assay [4] is CDK7 (human (endogenous in HeLa)) (UniProt P50613).
Assay [5] has as its target TBK1 (human (endogenous in HeLa and FOCUS)) (UniProt Q9UHD2).

The chains behind the UniProt entries cited, without tags or fusion partners.
UniProt Q9NYV4: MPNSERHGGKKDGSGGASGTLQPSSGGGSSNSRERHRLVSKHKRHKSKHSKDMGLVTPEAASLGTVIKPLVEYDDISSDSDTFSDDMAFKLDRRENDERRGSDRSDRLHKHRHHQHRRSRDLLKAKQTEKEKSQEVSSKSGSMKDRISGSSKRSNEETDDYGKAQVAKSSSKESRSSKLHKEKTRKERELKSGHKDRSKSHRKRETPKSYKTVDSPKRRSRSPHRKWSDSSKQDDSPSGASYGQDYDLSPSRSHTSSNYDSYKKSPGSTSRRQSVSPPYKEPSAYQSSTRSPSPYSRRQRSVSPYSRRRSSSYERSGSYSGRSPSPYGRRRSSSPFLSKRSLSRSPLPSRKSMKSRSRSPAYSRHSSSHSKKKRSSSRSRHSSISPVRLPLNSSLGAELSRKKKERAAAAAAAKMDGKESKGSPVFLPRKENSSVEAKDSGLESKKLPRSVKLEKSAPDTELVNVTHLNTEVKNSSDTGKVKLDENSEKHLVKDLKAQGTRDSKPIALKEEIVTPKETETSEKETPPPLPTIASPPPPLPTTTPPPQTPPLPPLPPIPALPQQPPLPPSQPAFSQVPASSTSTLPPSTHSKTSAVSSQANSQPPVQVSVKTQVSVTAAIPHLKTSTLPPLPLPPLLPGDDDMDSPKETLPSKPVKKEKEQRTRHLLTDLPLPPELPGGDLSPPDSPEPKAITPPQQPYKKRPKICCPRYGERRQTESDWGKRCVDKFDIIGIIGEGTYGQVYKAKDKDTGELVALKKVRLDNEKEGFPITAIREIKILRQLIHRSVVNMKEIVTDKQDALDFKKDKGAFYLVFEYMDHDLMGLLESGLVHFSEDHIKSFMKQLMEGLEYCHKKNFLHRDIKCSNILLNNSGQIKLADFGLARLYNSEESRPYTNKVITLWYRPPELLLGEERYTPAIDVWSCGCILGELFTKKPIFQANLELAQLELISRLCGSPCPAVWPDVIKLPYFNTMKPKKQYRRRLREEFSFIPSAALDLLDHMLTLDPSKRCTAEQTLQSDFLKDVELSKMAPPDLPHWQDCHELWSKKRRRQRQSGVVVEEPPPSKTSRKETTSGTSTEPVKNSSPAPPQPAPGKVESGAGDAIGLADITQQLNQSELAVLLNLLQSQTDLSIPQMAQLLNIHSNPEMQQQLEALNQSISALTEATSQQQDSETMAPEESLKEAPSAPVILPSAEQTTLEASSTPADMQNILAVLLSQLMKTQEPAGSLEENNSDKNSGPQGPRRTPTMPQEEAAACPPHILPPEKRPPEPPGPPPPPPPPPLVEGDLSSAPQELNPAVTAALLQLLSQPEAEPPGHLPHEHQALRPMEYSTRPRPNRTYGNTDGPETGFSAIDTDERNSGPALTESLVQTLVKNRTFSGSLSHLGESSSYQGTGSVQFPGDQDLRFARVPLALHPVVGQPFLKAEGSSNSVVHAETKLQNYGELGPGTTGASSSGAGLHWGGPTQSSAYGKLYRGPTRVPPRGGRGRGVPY
UniProt Q2M2I8: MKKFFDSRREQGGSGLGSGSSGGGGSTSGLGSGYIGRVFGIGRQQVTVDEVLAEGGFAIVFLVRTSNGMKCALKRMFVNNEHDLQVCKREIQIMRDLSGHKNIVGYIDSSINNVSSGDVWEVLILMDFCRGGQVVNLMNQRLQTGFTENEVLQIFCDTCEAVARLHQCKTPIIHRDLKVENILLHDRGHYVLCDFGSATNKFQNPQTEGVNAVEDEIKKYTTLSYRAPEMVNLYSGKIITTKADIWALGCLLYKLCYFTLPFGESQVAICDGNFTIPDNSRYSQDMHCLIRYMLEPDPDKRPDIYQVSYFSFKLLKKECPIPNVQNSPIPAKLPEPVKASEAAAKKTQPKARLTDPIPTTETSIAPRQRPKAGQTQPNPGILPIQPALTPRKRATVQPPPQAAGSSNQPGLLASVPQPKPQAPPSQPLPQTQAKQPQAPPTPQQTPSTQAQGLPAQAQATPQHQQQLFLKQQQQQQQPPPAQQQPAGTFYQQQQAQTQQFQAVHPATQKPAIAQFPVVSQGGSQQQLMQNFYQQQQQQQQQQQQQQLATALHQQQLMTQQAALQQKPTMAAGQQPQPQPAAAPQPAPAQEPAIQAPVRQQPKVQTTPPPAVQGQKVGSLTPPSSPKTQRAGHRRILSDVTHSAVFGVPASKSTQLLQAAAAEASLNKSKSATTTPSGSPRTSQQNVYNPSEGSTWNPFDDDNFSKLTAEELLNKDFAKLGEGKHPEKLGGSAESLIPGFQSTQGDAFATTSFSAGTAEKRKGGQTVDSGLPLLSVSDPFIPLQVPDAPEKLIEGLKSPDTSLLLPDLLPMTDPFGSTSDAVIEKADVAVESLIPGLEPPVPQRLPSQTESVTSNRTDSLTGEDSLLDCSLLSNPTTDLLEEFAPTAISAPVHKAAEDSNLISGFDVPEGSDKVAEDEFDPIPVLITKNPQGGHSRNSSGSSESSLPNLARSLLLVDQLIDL
UniProt P50613: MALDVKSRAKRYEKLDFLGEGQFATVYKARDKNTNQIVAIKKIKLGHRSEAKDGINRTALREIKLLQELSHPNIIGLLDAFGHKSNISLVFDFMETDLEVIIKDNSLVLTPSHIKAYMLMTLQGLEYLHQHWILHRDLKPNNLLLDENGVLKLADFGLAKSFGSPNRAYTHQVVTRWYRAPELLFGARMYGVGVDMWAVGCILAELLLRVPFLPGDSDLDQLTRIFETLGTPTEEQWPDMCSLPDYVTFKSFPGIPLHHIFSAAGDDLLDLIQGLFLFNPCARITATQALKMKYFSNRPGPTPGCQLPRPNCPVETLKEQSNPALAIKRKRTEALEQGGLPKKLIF
UniProt Q9UHD2: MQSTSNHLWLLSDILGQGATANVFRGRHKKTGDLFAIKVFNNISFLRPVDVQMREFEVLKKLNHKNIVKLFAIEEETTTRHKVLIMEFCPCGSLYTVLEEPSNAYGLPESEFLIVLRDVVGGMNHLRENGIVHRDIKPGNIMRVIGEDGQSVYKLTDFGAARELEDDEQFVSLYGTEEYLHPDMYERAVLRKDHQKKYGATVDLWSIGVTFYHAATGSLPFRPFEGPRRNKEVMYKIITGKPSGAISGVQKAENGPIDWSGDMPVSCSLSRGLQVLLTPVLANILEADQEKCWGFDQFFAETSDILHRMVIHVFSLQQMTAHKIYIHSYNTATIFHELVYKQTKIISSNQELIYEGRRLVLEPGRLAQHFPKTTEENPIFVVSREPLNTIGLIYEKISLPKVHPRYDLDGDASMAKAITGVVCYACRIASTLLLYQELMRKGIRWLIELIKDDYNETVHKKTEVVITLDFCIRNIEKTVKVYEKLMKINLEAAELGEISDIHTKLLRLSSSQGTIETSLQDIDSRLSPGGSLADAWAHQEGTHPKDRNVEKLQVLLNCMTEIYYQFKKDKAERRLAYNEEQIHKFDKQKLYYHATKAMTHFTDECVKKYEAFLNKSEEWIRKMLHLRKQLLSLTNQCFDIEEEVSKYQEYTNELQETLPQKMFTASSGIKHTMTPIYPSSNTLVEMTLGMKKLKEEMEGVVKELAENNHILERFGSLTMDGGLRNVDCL

These are yes or no findings as the source states them, for the method shown. In cells and extracts the contact can be indirect. Here binding means that the protein was enriched with, or labelled near, the bait; the list need not be complete.

B1: Arcadia (RNF111) (protein, UniProt Q6ZNA4 1-994)
chain: MSQWTPEYNELYTLKVDMKSEIPSDAPKTQESLKGILLHPEPIGAAKSFPAGVEMINSKVGNEFSHLCDDSQKQEKEMNGNQQEQEKSLVVRKKRKSQQAGPSYVQNCVKENQGILGLRQHLGTPSDEDNDSSFSDCLSSPSSSLHFGDSDTVTSDEDKEVSVRHSQTILNAKSRSHSARSHKWPRTETESVSGLLMKRPCLHGSSLRRLPCRKRFVKNNSSQRTQKQKERILMQRKKREVLARRKYALLPSSSSSSENDLSSESSSSSSTEGEEDLFVSASENHQNNPAVPSGSIDEDVVVIEASSTPQVTANEEINVTSTDSEVEIVTVGESYRSRSTLGHSRSHWSQGSSSHASRPQEPRNRSRISTVIQPLRQNAAEVVDLTVDEDEPTVVPTTSARMESQATSASINNSNPSTSEQASDTASAVTSSQPSTVSETSATLTSNSTTGTSIGDDSRRTTSSAVTETGPPAMPRLPSCCPQHSPCGGSSQNHHALGHPHTSCFQQHGHHFQHHHHHHHTPHPAVPVSPSFSDPACPVERPPQVQAPCGANSSSGTSYHEQQALPVDLSNSGIRSHGSGSFHGASAFDPCCPVSSSRAAIFGHQAAAAAPSQPLSSIDGYGSSMVAQPQPQPPPQPSLSSCRHYMPPPYASLTRPLHHQASACPHSHGNPPPQTQPPPQVDYVIPHPVHAFHSQISSHATSHPVAPPPPTHLASTAAPIPQHLPPTHQPISHHIPATAPPAQRLHPHEVMQRMEVQRRRMMQHPTRAHERPPPHPHRMHPNYGHGHHIHVPQTMSSHPRQAPERSAWELGIEAGVTAATYTPGALHPHLAHYHAPPRLHHLQLGALPLMVPDMAGYPHIRYISSGLDGTSFRGPFRGNFEELIHLEERLGNVNRGASQGTIERCTYPHKYKKVTTDWFSQRKLHCKQDGEEGTEEDTEEKCTICLSILEEGEDVRRLPCMHLFHQVCVDQWLITNKKCPICRVDIEAQLPSES
In the case of B1, the binding result in assay [1] is “binds”.

B2: VAV3 (protein, UniProt Q9UKW4 1-847)
chain: MEPWKQCAQWLIHCKVLPTNHRVTWDSAQVFDLAQTLRDGVLLCQLLNNLRAHSINLKEINLRPQMSQFLCLKNIRTFLTACCETFGMRKSELFEAFDLFDVRDFGKVIETLSRLSRTPIALATGIRPFPTEESINDEDIYKGLPDLIDETLVEDEEDLYDCVYGEDEGGEVYEDLMKAEEAHQPKCPENDIRSCCLAEIKQTEEKYTETLESIEKYFMAPLKRFLTAAEFDSVFINIPELVKLHRNLMQEIHDSIVNKNDQNLYQVFINYKERLVIYGQYCSGVESAISSLDYISKTKEDVKLKLEECSKRANNGKFTLRDLLVVPMQRVLKYHLLLQELVKHTTDPTEKANLKLALDAMKDLAQYVNEVKRDNETLREIKQFQLSIENLNQPVLLFGRPQGDGEIRITTLDKHTKQERHIFLFDLAVIVCKRKGDNYEMKEIIDLQQYKIANNPTTDKENKKWSYGFYLIHTQGQNGLEFYCKTKDLKKKWLEQFEMALSNIRPDYADSNFHDFKMHTFTRVTSCKVCQMLLRGTFYQGYLCFKCGARAHKECLGRVDNCGRVNSGEQGTLKLPEKRTNGLRRTPKQVDPGLPKMQVIRNYSGTPPPALHEGPPLQLQAGDTVELLKGDAHSLFWQGRNLASGEVGFFPSDAVKPCPCVPKPVDYSCQPWYAGAMERLQAETELINRVNSTYLVRHRTKESGEYAISIKYNNEAKHIKILTRDGFFHIAENRKFKSLMELVEYYKHHSLKEGFRTLDTTLQFPYKEPEHSAGQRGNRAGNSLLSPKVLGIAIARYDFCARDMRELSLLKGDVVKIYTKMSANGWWRGEVNGRVGWFPSTYVEEDE
As for B2, the binding result in assay [2] was “binds”.

B3: REPS2 (protein, UniProt Q8NFH8 1-660)
chain: MEAAAAAAAAAAAAAAAGGGCGSGPPPLLLSEGEQQCYSELFARCAGAAGGGPGSGPPEAARVAPGTATAAAGPVADLFRASQLPAETLHQITELCGAKRVGYFGPTQFYIALKLIAAAQSGLPVRIESIKCELPLPRFMMSKNDGEIRFGNPAELHGTKVQIPYLTTEKNSFKRMDDEDKQQETQSPTMSPLASPPSSPPHYQRVPLSHGYSKLRSSAEQMHPAPYEARQPLVQPEGSSSGGPGTKPLRHQASLIRSFSVERELQDNSSYPDEPWRITEEQREYYVNQFRSLQPDPSSFISGSVAKNFFTKSKLSIPELSYIWELSDADCDGALTLPEFCAAFHLIVARKNGYPLPEGLPPTLQPEYLQAAFPKPKWDCQLFDSYSESLPANQQPRDLNRMEKTSVKDMADLPVPNQDVTSDDKQALKSTINEALPKDVSEDPATPKDSNSLKARPRSRSYSSTSIEEAMKRGEDPPTPPPRPQKTHSRASSLDLNKVFQPSVPATKSGLLPPPPALPPRPCPSQSEQVSEAELLPQLSRAPSQAAESSPAKKDVLYSQPPSKPIRRKFRPENQATENQEPSTAASGPASAATMKPHPTVQKQSSKQKKAIQTAIRKNKEANAVLARLNSELQQQLKEVHQERIALENQLEQLRPVTVL
Regarding B3, in assay [3], the binding entry is “binds”.

B4: GTF2H4 (protein, UniProt Q92759 1-462)
chain: MESTPSRGLNRVHLQCRNLQEFLGGLSPGVLDRLYGHPATCLAVFRELPSLAKNWVMRMLFLEQPLPQAAVALWVKKEFSKAQEESTGLLSGLRIWHTQLLPGGLQGLILNPIFRQNLRIALLGGGKAWSDDTSQLGPDKHARDVPSLDKYAEERWEVVLHFMVGSPSAAVSQDLAQLLSQAGLMKSTEPGEPPCITSAGFQFLLLDTPAQLWYFMLQYLQTAQSRGMDLVEILSFLFQLSFSTLGKDYSVEGMSDSLLNFLQHLREFGLVFQRKRKSRRYYPTRLAINLSSGVSGAGGTVHQPGFIVVETNYRLYAYTESELQIALIALFSEMLYRFPNMVVAQVTRESVQQAIASGITAQQIIHFLRTRAHPVMLKQTPVLPPTITDQIRLWELERDRLRFTEGVLYNQFLSQVDFELLLAHARELGVLVFENSAKRLMVVTPAGHSDVKRFWKRQKHSS
For B4, the binding result in assay [4] is reported as “binds”.

B5: TANK (protein, UniProt Q92844 1-425)
chain: MDKNIGEQLNKAYEAFRQACMDRDSAVKELQQKTENYEQRIREQQEQLSLQQTIIDKLKSQLLLVNSTQDNNYGCVPLLEDSETRKNNLTLDQPQDKVISGIAREKLPKVRRQEVSSPRKETSARSLGSPLLHERGNIEKTFWDLKEEFHKICMLAKAQKDHLSKLNIPDTATETQCSVPIQCTDKTDKQEALFKPQAKDDINRGAPSITSVTPRGLCRDEEDTSFESLSKFNVKFPPMDNDSTFLHSTPERPGILSPATSEAVCQEKFNMEFRDNPGNFVKTEETLFEIQGIDPIASAIQNLKTTDKTKPSNLVNTCIRTTLDRAACLPPGDHNALYVNSFPLLDPSDAPFPSLDSPGKAIRGPQQPIWKPFPNQDSDSVVLSGTDSELHIPRVCEFCQAVFPPSITSRGDFLRHLNSHFNGET
In the case of B5, the binding entry in assay [5] is “binds”.

For the origin of these results see article doi:10.1101/2021.09.14.460283.
